Most values lie at the floor of the assay. Slopes are relative: functional sequences can read slightly below zero.

The test system of this series is Saccharomyces cerevisiae PS128 hsf1 delta, HSF1(1-493) fusion. The series is described as follows: growth estimate (transactivation domain function in HSF1 fusion, heat-shock survival) (a.u. (slope of normalised read count over time)); higher = stronger growth at 37°C, i.e. more transactivation activity. The note with it: library: random library.
As for AQQHGPYEPTDTRKGGHRLS, the growth estimate is < -0.25.
In the case of FDTTDRASDHLPLLIKQDG, the growth estimate was < -0.25.
As for RLHRSGDDLKWIRARPYV, the growth estimate was < -0.25.
The same measure for SPD: -0.154.
The same measure for LSFGDRHRFAGWFPACTNST: < -0.25; for RCLGHFDTLT: < -0.25; for GQDG: < -0.25.
Under PVDF stands < -0.25; under RGAPTLNQVSGR, < -0.25; under NKARHDYHRLSMHVQGKHHY, < -0.25.
Turning to LRGGFQYRQVSCLR, the growth estimate is < -0.25.
Turning to GYANPHEVR, the growth estimate is < -0.25.
As for GRKVITGVDFGGGSSIR, the growth estimate is < -0.25.
Under FEGRTGPASLIDYDRSYNSR stands < -0.25.
Regarding PASLPTALQWQGSIYGSLF, the growth estimate is -0.152.
The same measure for ADPIRSLCGLFFSAH: -0.229.
The same measure for NDVRGLTSPRSCV: < -0.25.
With RLLRMMVNVGPKWSLSSDAA, the growth estimate is < -0.25.
Under NEWLRKPAALLGVRHKKDGV stands < -0.25.
The same measure for GCLG: < -0.25.
For the substance WRKIYFDLMEGMFGYIFPGK, the growth estimate was < -0.25.
As for VWDKLQQSAAIDQVLSWTGL, the growth estimate is < -0.25.
As to PSHPGRTQSDHVY, the growth estimate was < -0.25.
As to VSQSYCGSNRLYSQVHASAS, the growth estimate is < -0.25.
In the case of TRGSG, the growth estimate was < -0.25.
Turning to PRALRYVGLS, the growth estimate was < -0.25.
Under SIHEGRLGEH stands < -0.25.
Under AACKQGLGIEFDGLFPM stands < -0.25; under VPPGTDPSVS, < -0.25; under AGLA, -0.237.
Under WKTV stands < -0.25; under GNFDTTSRLYLLSSRQR, < -0.25.
For AFRDGLRFSERCDLQFQIAF, the growth estimate was < -0.25.
The same measure for PVITSLQAPEFRATGMQGLC: < -0.25.
Under VARSFVSS stands < -0.25; under RLFGKYGKGNSGKIRN, < -0.25.
Under VSSVDSYVGSLLFHKKPEDE stands < -0.25; under GNCVTLVAQFYDLDLEDIDT, -0.231.
In the case of PGNN, the growth estimate is < -0.25.
The same measure for GLPIQKGSGLY: < -0.25; for LSLNPAGGL: < -0.25; for MPAELLVSVEPAKSCRTPCT: < -0.25.
Turning to YQNQRAEWIVRLACHASIRA, the growth estimate is < -0.25.
For the substance EEVCLLV, the growth estimate was < -0.25.
The same measure for LNIRRKIGSGCAPRLRICHE: < -0.25; for YGIA: < -0.25.
Under THCLLIPEKRG stands < -0.25; under KSAYTFGRARLNSEDAGITG, < -0.25.
Under DSRPQPRFRVCVGGK stands < -0.25; under PLDSTSFGHIFWSWGSLLGT, < -0.25; under TKNWRGGSFGSGWQIGLTHD, -0.173.
With LSVAINSKTITGAGVLRLRG, the growth estimate was < -0.25.
The same measure for IGSRHRDRCGIGRRPFAHRC: < -0.25.
Under RAGTSEDFLGEMGSYYNVAD stands -0.199; under RGPQRGTRLRAKRIVAAFAI, < -0.25; under HVYVHGTIETLVFSMADGDR, < -0.25.
The same measure for KSRAIVTDRSLGDSFVANVG: < -0.25; for LFHCKPRIDNRGHWCH: < -0.25; for TCMHPRR: < -0.25.
GKGRTVM: the growth estimate is < -0.25.
For the substance VTSHL, the growth estimate was < -0.25.
With APPVRSQAIPGVHAKAQWQN, the growth estimate was < -0.25.
Under CARRGLHVAFL stands < -0.25; under KTGPISRT, < -0.25.
Turning to GIGGATRYVNQFFCPTFRG, the growth estimate was < -0.25.
The same measure for SACALGQRRGSRYAGDGGSA: < -0.25.
Turning to NSVKV, the growth estimate is < -0.25.
Under VASSS stands < -0.25.
Under MYVSYICS stands < -0.25; under PQLSAVSPPDKDVRGTQTAC, < -0.25; under GPRTSRKREECCCVRPTE, < -0.25.
On to RTCRDYPSWVRDNCLVISHR, for which the growth estimate is < -0.25.
The same measure for LLRSVRDFAVTRNS: < -0.25; for NSQSCEAHGS: < -0.25.
Under VKEGRLEDSPLWGVKRIDIT stands < -0.25; under LDASAYGIVL, < -0.25.
With SSLSGVPLPPNQARRTTDSE, the growth estimate is < -0.25.
The same measure for SPGTSGYSESCSKVQLSRLA: < -0.25; for GTNQWRIRARAVPQGFSRNR: < -0.25; for ALFTSLQAETNLCRTKLTPL: < -0.25.
The same measure for CRPIQTHVSVNLVSVALNVR: < -0.25; for SNLDLACFGCERVRRPMA: < -0.25.
The same measure for GYGLSSVTSNLGVSNELGA: < -0.25; for RGEV: < -0.25; for TMRTRLVQHKWSGSCAYDLR: < -0.25.
Regarding RVV, the growth estimate is < -0.25.
Turning to ALICAPDI, the growth estimate is < -0.25.
The same measure for VSDTMSLSWMDLVDRQMTQR: < -0.25; for GLPPSC: < -0.25; for ARHDDGNLYLRTGCTVTLSW: < -0.25.
Under QPERSKYWRD stands < -0.25; under PWPQGVAVLEDGGCFM, < -0.25.
Under PLSDGGAGTSSFVYSFGPTS stands < -0.25.
Turning to FPTLVANFVHSFAAIIGRIR, the growth estimate was < -0.25.
The same measure for VVGSLGRSKSGPNHTFNIWG: < -0.25; for LAKM: < -0.25; for VVIDHRNGHTRRHRIRECGV: < -0.25.
Under VVVRRPAEVECCESSPK stands < -0.25; under KVFIYTEHAYAL, < -0.25; under FDINRSLDGFFRAANSHFRD, -0.124.
The same measure for LCVRRSHI: < -0.25.
Consider ELMLDLLTRRHPF, for which the growth estimate is < -0.25.
In the case of TRFTPACRGGNGPGDVDTT, the growth estimate was < -0.25.
Turning to LLKRSPARTKGGVGTNSSRK, the growth estimate is < -0.25.
Under RLKMSFCRTRDPPR stands < -0.25; under QLRAGIRCVV, < -0.25.
The same measure for HVLE: < -0.25; for LRYMRRRCGPTEKQIDWGVV: < -0.25; for DDELGVMTLRDPLVGALAQS: < -0.25.
The same measure for IATPP: < -0.25.
For the substance FHVFSRTNIQRALARACHPR, the growth estimate is < -0.25.
The same measure for VHARLGPVSERPISLMMSVP: < -0.25; for AVYRRENNDPLQILTCSPDS: -0.237.
Under CDGLPFPTYRYYGFAHYRQS stands < -0.25.
The same measure for RTSPISTCERHCGLYVRL: < -0.25.

Values taken from the supplement of paper PMC5949888.
